Data from patent US20110243944A1 (SHANGHAI KEXIN BIOTECH, published 2011).

Target: FcγRII receptor
Assay: flow cytometry; 5 µg RIG on 1*10^6 HMC-1 cells, detected with FITC labeled anti human IgG antibody

B1: fusion protein RIG (Fc fusion)
chain: MRRASRDYTKYLRGSEEMGGGPGAPHEGPLHAPPPPAPHQPPAASRSMFVALLGLGLGQVVCSVALFFYFRAQMDPNRISEDGTHCIYRILRLHENADFQDTTLESQDTKLIPDSCRRIKQAFQGAVQKELQHIVGSQHIRAEKAMVDGSWLDLAKRSKLEAQPFAHLTINATDIPSGSHKVSLSSWYHDRGWAKISNMTFSNGKLIVNQDGFYYLYANICFRHHETSGDLATEYLQLMVYVTKTSIKIPSSHTLMKGGSTKYWSGNSEFHFYSINVGGFFKLRSGEEISIEVSNPSLLDPDQDATYFGAFKVRDIDGSEPKSCDKTHTCPPCPAPELLGGPSVFLFPPKPKDTLMISATPEVTCVVVDVSHEDPEVKFMWYVDGVEVHNAKTKPAEEQYNSTYAVVSVLTVLHQDWLNGKEYKCKVSNKALPAPIEKTISKAKGQPAEPQVYTLPPSRDELTYNQVSLTCLVKGFYPSDIAVEWESNGQPENNYKTTPPVLDSDGSFFLYSKLTVDKSRWQQGNVFSCSVMHEALHNHYTQKSLSLSPGK
notes: also called RANKL-Fcγ fusion protein; RIG protein
binding: binds

These are yes or no findings as the source states them, for the method shown. Binding calls can cover weak binding; strength is not graded here. Where a sequence is shown, tags or fusion partners need not be part of it.
